# Experimental data taken from publication PMC7827558.
# B1: CARF (protein, UniProt Q9NXV6 1-580)
# chain: MAQEVSEYLSQNPRVAAWVEALRCDGETDKHWRHRRDFLLRNAGDLAPAGGAASASTDEAADAESGTRNRQLQQLISFSMAWANHVFLGCRYPQKVMDKILSMAEGIKVTDAPTYTTRDELVAKVKKRGISSSNEGVEEPSKKRVIEGKNSSAVEQDHAKTSAKTERASAQQENSSTCIGSAIKSESGNSARSSGISSQNSSTSDGDRSVSSQSSSSVSSQVTTAGSGKASEAEAPDKHGSASFVSLLKSSVNSHMTQSTDSRQQSGSPKKSALEGSSASASQSSSEIEVPLLGSSGSSEVELPLLSSKPSSETASSGLTSKTSSEASVSSSVAKNSSSSGTSLLTPKSSSSTNTSLLTSKSTSQVAASLLASKSSSQTSGSLVSKSTSLASVSQLASKSSSQTSTSQLPSKSTSQSSESSVKFSCKLTNEDVKQKQPFFNRLYKTVAWKLVAVGGFSPNVNHGELLNAAIEALKATLDVFFVPLKELADLPQNKSSQESIVCELRCKSVYLGTGCGKSKENAKAVASREALKLFLKKKVVVKICKRKYRGSEIEDLVLLDEESRPVNLPPALKHPQELL
# Biological target: BirA–p53β fusion protein (human) (UniProt P04637)
# Assay: proximity labelling; BioID: MCF-7 transiently transfected with pCMV-BirA-p53FL or pCMV-BirA-p53β, biotin overnight, lysates on streptavidin beads, biotinylated proteins identified by MS; hits validated by immunoblot (Figure 4)
binder,measurement,value
B1,binding,binds

# Results are given in words; binding and its absence hold for the method and conditions named. In cells and extracts the contact can be indirect. These calls come from enrichment with a bait or labelling near it, and not all partners need be listed.
